# Reference: PubChem BioAssay AID651768 (National Center for Advancing Translational Sciences (NCATS), 2012)
# Amino acid sequences for entries named in this document (tags omitted).
# UniProt Q14191, whole entry, looked up: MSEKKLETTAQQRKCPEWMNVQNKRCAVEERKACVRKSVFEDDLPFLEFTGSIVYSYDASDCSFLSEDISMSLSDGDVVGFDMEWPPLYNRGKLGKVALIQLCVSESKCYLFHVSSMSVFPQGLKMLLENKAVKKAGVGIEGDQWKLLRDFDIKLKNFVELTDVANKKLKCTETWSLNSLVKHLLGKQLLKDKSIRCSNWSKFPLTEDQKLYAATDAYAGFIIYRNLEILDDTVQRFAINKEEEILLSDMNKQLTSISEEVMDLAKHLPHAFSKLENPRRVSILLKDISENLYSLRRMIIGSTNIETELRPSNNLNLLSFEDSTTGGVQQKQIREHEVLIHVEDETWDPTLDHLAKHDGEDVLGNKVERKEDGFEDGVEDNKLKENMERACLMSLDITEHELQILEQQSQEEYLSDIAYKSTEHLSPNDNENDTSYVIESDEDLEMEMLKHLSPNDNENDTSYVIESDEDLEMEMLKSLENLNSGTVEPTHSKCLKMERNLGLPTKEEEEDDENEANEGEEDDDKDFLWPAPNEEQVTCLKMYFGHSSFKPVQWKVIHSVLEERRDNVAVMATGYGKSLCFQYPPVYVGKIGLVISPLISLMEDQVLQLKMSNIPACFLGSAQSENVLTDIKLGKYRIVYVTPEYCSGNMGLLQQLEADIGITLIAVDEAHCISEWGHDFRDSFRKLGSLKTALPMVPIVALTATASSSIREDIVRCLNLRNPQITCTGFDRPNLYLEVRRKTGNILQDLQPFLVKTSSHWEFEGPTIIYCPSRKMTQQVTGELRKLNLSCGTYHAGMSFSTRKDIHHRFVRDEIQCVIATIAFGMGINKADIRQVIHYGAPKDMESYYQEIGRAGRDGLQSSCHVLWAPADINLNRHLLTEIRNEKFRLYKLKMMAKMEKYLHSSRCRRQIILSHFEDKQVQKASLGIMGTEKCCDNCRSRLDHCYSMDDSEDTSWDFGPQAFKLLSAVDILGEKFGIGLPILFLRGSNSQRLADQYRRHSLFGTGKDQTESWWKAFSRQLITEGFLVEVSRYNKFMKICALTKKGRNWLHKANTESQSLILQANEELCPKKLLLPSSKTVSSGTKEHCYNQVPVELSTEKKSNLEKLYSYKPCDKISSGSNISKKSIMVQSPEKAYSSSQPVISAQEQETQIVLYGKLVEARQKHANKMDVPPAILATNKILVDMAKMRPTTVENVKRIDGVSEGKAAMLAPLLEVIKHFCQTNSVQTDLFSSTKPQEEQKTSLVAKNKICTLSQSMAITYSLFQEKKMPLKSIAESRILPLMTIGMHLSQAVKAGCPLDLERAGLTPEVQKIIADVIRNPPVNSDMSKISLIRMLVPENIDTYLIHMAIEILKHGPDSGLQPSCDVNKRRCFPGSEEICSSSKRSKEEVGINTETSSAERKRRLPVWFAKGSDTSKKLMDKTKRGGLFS
# Hit rate of the full screen: of about 360,000 compounds, about 1,700 (0.47%) were called active. Inconclusive means that the source gave no clear call. Such entries were picked first, then a sample of the others. Calls come from the whole dose curve; as a rule, active = well fitted inhibition curve with a large enough effect; inconclusive = small, poorly fitted or top-dose-only effect; inactive = no such curve, though single readings can be large or run the other way. Potencies beside an inconclusive call are fits to weak or partial responses and may not hold up.
# Biological target: Bifunctional 3'-5' exonuclease/ATP-dependent helicase WRN (Homo sapiens) (UniProt Q14191)
# Experiment: qHTS for Inhibitors of WRN Helicase; note: nearly all actives have a fitted effect of over 55% in size
# Conditions: WRN helicase unwinding, fluorescent forked duplex, kinetic; activity change, negative = inhibition: at 114 µM (top of the series) unless noted
# How it was run: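 Screening of the MLSMR collection measured strand separation of a quenched forked DNA duplex (100 nM) by 20 nM WRN with 2 mM ATP, all final. Compounds were preincubated with enzyme 15 min at room temperature.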
# % is set by controls: 0 for no effect and ±100 for the full control effect; potency is the fitted concentration of half-maximal effect.
SMILES,Potency,"activity change, negative = inhibition"
CN(CC(=O)NC(=O)Nc1ccccc1F)Cc1ccccc1,"inconclusive: 28.2 µM [inhibitor, full curve, poor fit]",
NS(=O)(=O)c1cc(C(=O)NC2CCSc3ccccc32)ccc1Cl (configuration not stated),active: 0.844 µM,
NNc1nccc(Nc2ccccc2C(=O)O)n1,"inconclusive: 50.1 µM [inhibitor, partial curve]",
O=C(N/N=C/C(Cl)=C/c1ccc([N+](=O)[O-])cc1)C(=O)Nc1ccccc1C(=O)O,"inconclusive: 56.2 µM [inhibitor, partial curve]",
CN(C)c1ccc2cc(S(=O)(=O)O)cc(O)c2c1,,inconclusive: -75.9% [inhibitor]
O=C(COC(=O)/C=C/c1ccco1)Nc1ccc(F)cc1Cl,,inactive: -24.1% [at 11.6 µM]
CN(C)c1ccc(C2CC(=O)OC3=C2C(=O)CC(C)(C)C3)cc1 (configuration not stated),"inconclusive: 15.8 µM [inhibitor, full curve]",
c1ccc(-c2nc(-c3ccco3)cs2)nc1,"inconclusive: 50.1 µM [inhibitor, partial curve]",
O=C(NNC(=O)c1cccc(-n2cccc2)c1)c1ccc(F)cc1,"inconclusive: 79.4 µM [inhibitor, partial curve]",
N/C(Cc1ccc([N+](=O)[O-])cc1)=N\OC(=O)COc1cccc2ccccc12,,inactive: -4.87%
COc1ccc(Cl)cc1NS(=O)(=O)c1cccc(C(=O)NCCCN2CCCC2=O)c1,"inconclusive: 89.1 µM [inhibitor, single point]",
O=S(=O)(Nc1cc(Sc2cccc3cccnc23)c(O)c2ccccc12)c1ccc(F)cc1,active: 22.4 µM,
CCN1CCC(O)(/C=C/c2ccc(C)cc2)C(C(=O)/C=C/c2ccc(C)cc2)C1 (configuration not stated),active: 14.1 µM,
O=C(Nc1nnc(SCc2ccc(F)cc2)s1)C1Cc2ccccc2CN1C(=O)c1ccco1 (configuration not stated),"inconclusive: 50.1 µM [inhibitor, partial curve]",
O=C(CCN1C(=O)/C(=C/c2ccccc2Cl)SC1=S)Nc1ccccc1C(=O)O,,inactive: -14.1%
NC(=O)c1nn(Cc2ccccc2)c(=O)c2ccccc12,"inconclusive: 79.4 µM [inhibitor, single point]",
FC(F)(F)C1CCCN(c2nsc3ccccc23)C1 (configuration not stated),active: 22.4 µM,
O=C(O)c1cccc(-c2ccc(/C=c3/sc4nc5ccccc5n4c3=O)o2)c1,active: 39.8 µM,
O=C1SC(SCc2ccccc2)=N/C1=C\c1ccco1,active: 50.1 µM,
Cc1ccc(C)c(NC(=O)c2ccccc2O)c1,active: 56.2 µM,
COc1ccc(S(=O)(=O)N(C)C[C@H]2OCCCC[C@@H](C)Oc3ccc(N(C)C)cc3C(=O)N([C@H](C)CO)C[C@@H]2C)cc1,,inactive: -0.576%

# 3 entries picked at random from those above:
SMILES,Potency,"activity change, negative = inhibition"
CN(C)c1ccc(C2CC(=O)OC3=C2C(=O)CC(C)(C)C3)cc1 (configuration not stated),"inconclusive: 15.8 µM [inhibitor, full curve]",
CN(C)c1ccc2cc(S(=O)(=O)O)cc(O)c2c1,,inconclusive: -75.9% [inhibitor]
FC(F)(F)C1CCCN(c2nsc3ccccc23)C1 (configuration not stated),active: 22.4 µM,

# Going on with the list.

SMILES,Potency,"activity change, negative = inhibition"
CC(C)CN=Cc1c(O)c([N+](=O)[O-])cc2oc3c(c12)CCCC3,"inconclusive: 25.1 µM [inhibitor, single point]",
COc1ccc(N=C2NC(=O)/C(=C/c3ccc(O)c(OC)c3)S2)cc1,"inconclusive: 50.1 µM [inhibitor, partial curve]",
COc1cc(-c2cnc3c(NC=O)cc(-c4ccc(N5CCN(C)CC5)cc4)cn23)cc(OC)c1OC,active: 50.1 µM,
Cc1ccc(SCC(=O)c2ccc(CC(=O)O)s2)cc1,"inconclusive: 50.1 µM [inhibitor, partial curve]",
Cc1cccc(C)c1OCc1cc(C(=O)N2CCN(c3ccccc3)CC2C)no1 (configuration not stated),"inconclusive: 79.4 µM [inhibitor, single point]",
Cn1c(/C(C#N)=C(\O)c2cccc(F)c2)nc2ccccc21,"inconclusive: 89.1 µM [inhibitor, single point]",
CCOc1cccc2sc(Nc3nc4ccc(NC(C)=O)cc4s3)nc12,"inconclusive: 39.8 µM [inhibitor, single point]",
CCOc1cc(/C=C2/C(=O)ON=C2C)ccc1OCc1ccccc1F,"inconclusive: 50.1 µM [inhibitor, partial curve]",
CN1C=CC=C/C1=C1\SC(=S)N(c2ccccc2)C1=O,"inconclusive: 35.5 µM [inhibitor, full curve, poor fit]",
C#CCOCCOCCOCCNc1nc(N2CCN(C(=O)CCCCCCCCCCNC(=O)[C@H](CO)n3cc(CCCSC)nn3)CC2)nc(N2CCN(C(=O)CCCCCCCCCCNC(=O)[C@H](CCCN=C(N)N)n3cc(C[C@@H](C)CC)nn3)CC2)n1,"inconclusive: 39.8 µM [inhibitor, single point]",
CCN(CC)c1ccc(NC(=O)c2ccccc2Br)cc1S(=O)(=O)Nc1ccccc1OC,"inconclusive: 10 µM [inhibitor, partial curve]",
O=C(O)COc1ccccc1/C=C1\SC(=S)N(NC(=O)c2ccccc2O)C1=O,"inconclusive: 35.5 µM [inhibitor, partial curve]",
COc1cccc2c1C(=O)c1c(O)c3c(c(O)c1C2=O)C[C@@](O)(C(=O)CO)C[C@@H]3OC1CC(N)C(O)C(C)O1 (some centres not stated),active: 2.99 µM,
O=C(O)C(c1ccccc1)N1C(=O)/C(=C\c2ccc(-c3ccc(Br)cc3)o2)SC1=S (configuration not stated),"inconclusive: 44.7 µM [inhibitor, partial curve]",
Cc1c(Cl)cccc1NC(CC(=O)c1ccccc1)C(=O)O (configuration not stated),"inconclusive: 25.1 µM [inhibitor, partial curve]",
O=C(Nc1ccccc1C(=O)O)c1ccc(NC(=O)C2CC2)cc1,"inconclusive: 56.2 µM [inhibitor, partial curve]",
O=C1c2nccnc2C(=O)N1Cc1ccccc1,"inconclusive: 12.6 µM [inhibitor, partial curve]",
Cc1cc(NC(=O)C(C)SCC(=O)Nc2nnc(CC(C)C)s2)no1 (configuration not stated),,inactive: 7.99%
O=C(O)c1cc(-c2ccco2)nc2cc3ccccc3cc12,"inconclusive: 50.1 µM [inhibitor, partial curve]",
O=C(O)COc1ccccc1C=NNc1ccc([N+](=O)[O-])cc1S(=O)(=O)Nc1ccc(Cl)cc1,,inconclusive: -36.4% [inhibitor]
CCn1c(Nc2ccccc2Cl)nc2ccccc21,,inactive: -29.4%
